Columns and labels:
purified BoTEMO enzyme = assay: Specific activity and ee of purified BoTEMO enzyme against a series of thioethers; assay type: biochemical, Bradyrhizobium oligotrophicum ECU1212; conditions: ee of sulfoxide product with configuration
Method: To 0.5 ml of potassium phosphate buffer (100 mmol/L, pH 9.0) was added purified BoTEMO enzyme (purified BoTEMO enzyme prepared in accordance with the method of Example 5). A thioether substrate dissolved in DMSO was added so that the final concentration of the thioether was 0.2-2 mmol/L and the final concentration of DMSO was 2% (v/v), and NADPH was added to a final concentration 0.2-2 mmol/L. At 25° C., the reaction was stirred at 1000 rpm under shaking. After completion of reaction, 0.6 ml of ethyl acetate was added for extraction. The extract was dried over anhydrous sodium sulfate. The organic clear liquid was taken up, and evaporated overnight to remove the solvent. Then, the residue was dissolved with 0.5 ml of isopropanol and analyzed for measuring the ee value of product.
The particular analysis conditions of conversion rate and ee value of product are as follows:
(§1) The analysis is carried out with a high performance liquid chromatograph (HPLC) under the conditions of: a chiral OD-H column ([…], 5 μm particle size, Daicel), a mobile phase of n-hexane:isopropanol=93:7, a flow rate of 1 ml/min, and UV detection at 254 nm; or an AS-H column (250 mm×4.6 mm, 5 μm particle size, Daicel), a mobile phase of n-hexane:isopropanol=55:45, a flow rate of 0.5 mL/min, and UV detection at 254 nm.
The activity of BoTEMO for catalyzing the asymmetrical oxidation of a series of thioether substrates to produce optically active sulfoxides was further determined by the method in accordance with Example.

Recombinant BoTEMO = assay: Asymmetric oxidation of thioethers by recombinant BoTEMO crude enzyme with glucose dehydrogenase recycling; assay type: biochemical, Bradyrhizobium oligotrophicum ECU1212
Method: as §1
To 0.5 ml potassium phosphate buffer (100 mmol/L, pH 9.0) was added 100 μL of crude enzyme solution of BoTEMO (the crude enzyme solution in accordance with the method of Example 5) and a crude enzyme solution of glucose dehydrogenase, and thioanisole, methanol, NADP^+ and glucose were added to the final concentration of 2 mmol/L, 10% (v/v), 0.2 mmol/L and 3.6 g/L, respectively. At 25° C. and 1000 rpm, the mixture was shaken for 1 h. After completion of reaction, 0.6 ml of ethyl acetate was added for extraction. The extract was dried over anhydrous sodium sulfate, and evaporated to remove the solvent. Then, the residue was dissolved in 0.5 ml of isopropanol. The mixture was analyzed in accordance with the method of Example 7 for measure the conversion of reaction and the ee value of product. The conversion of reaction was above 99%, and the ee value of product was above 99% (S).
To 0.5 ml of potassium phosphate buffer (100 mmol/L, pH 9.0) was added 100 μL crude enzyme solution of BoTEMO (the crude enzyme solution prepared in accordance with the method of Example 5) and a crude enzyme solution of glucose dehydrogenase, and omeprazole thioether, methanol, NADP^+ and glucose were added to the final concentrations of 0.2 mmol/L, 10% (v/v), 0.2 mmol/L and 3.6 g/L, respectively. At 25° C. and 1000 rpm, the mixture was shaken for 1 h. After completion of reaction, 0.6 ml of ethyl acetate was added for extraction. […] Then, the residue was dissolved in 0.5 ml isopropanol, and the solution was analyzed in accordance with the method of Example 7 for measuring the conversion of reaction and the ee value of product. […]
To 10 ml of potassium phosphate buffer (100 mmol/L, pH 9.0) was added 0.1 g of lyophilized crude enzyme powders of BoTEMO (crude enzyme powders prepared in accordance with the method of Example 5) and 0.02 g of lyophilized crude enzyme powder of glucose dehydrogenase (15 U/mg), and 1-3 g/L of omeprazole thioether/lansoprazole thioether/pantoprazole thioether/rabeprazle thioether/ilaprazole thioether, 10% (v/v) of methanol, 0.2 mmol/L of NADP^+ and 10 g/L of glucose were added. […] Then, the residue was dissolved in 0.5 ml of isopropanol, and the solution was analyzed in accordance with the method of Example 7 for measuring the conversion of reaction and the ee value of product. […]

Compound	ee (%) (purified BoTEMO enzyme)	also measured
CSc1ccccc1 [compound 1]	99 (S) %	–
COc1ccc2[nH]c(SCc3ncc(C)c(OC)c3C)nc2c1 [compound 2]	99 (R) %	–
COc1ccnc(CSc2nc3cc(-n4cccc4)ccc3[nH]2)c1C [compound 3]	99 (R) %	–
CSc1ccc(C)cc1 [compound 4]	52 (R) %	–
COc1ccc2[nH]c(SC)nc2c1 [compound 5]	99 (R) %	–
COCCCOc1ccnc(CSc2nc3ccccc3[nH]2)c1C [compound 6]	99 (R) %	–
COc1ccnc(CSc2nc3cc(OC(F)F)ccc3[nH]2)c1OC [compound 7]	99 (S) %	–
Cc1c(OCC(F)(F)F)ccnc1CSc1nc2ccccc2[nH]1 [compound 8]	99 (R) %	–
Cc1c(OCC(F)(F)F)ccnc1CSc1nc2ccccc2[nH]1 [lansoprazole thioether]	–	ee value of product (Recombinant BoTEMO; (R), 2 g/L substrate, 24 h): above 99%
COc1ccc2[nH]c(SCc3ncc(C)c(OC)c3C)nc2c1 [omeprazole thioether]	–	ee value of product (Recombinant BoTEMO; (R), 1 g/L substrate, 3 h): above 99%; ee value of product (Recombinant BoTEMO; (R), crude enzyme solution, 0.2 mmol/L substrate, 1 h): above 99%
CSc1ccccc1 [thioanisole]	–	ee value of product (Recombinant BoTEMO; (S), crude enzyme solution, 2 mmol/L substrate, 1 h): above 99%
